Test results taken from patent US20230399373A1 (THE TRUSTEES OF INDIANA UNIVERSITY, priority 2020, published 2023).
One purity is given for all peptides; the source may state it once. Non-standard residues stand in square brackets, D forms with d. *: point of attachment. Boc = CC(C)(C)OC(=O)*; Sar = CNCC(=O)O; tBu = CC(C)(C)*

Assay: peptide synthesis
Details: whole synthesis, LC-MS (Finnigan LCQ Advantage) on TARGA C8, 5-45%B over 45 min (printed for identity)

Final LC-MS purity, >95%:
Boc-GFF[Sar]-OH
Boc-GFFY(tBu)G-OH
GFFYTG[APD]
GFFYT[APD]
Boc-GFFY(tBu)T(tBu)-OH
GFFYG[APD]
